Reference: patent publication US5393742A, “Preparation for treating renal disease” (MECT Corporation, priority 1990, dated 1995)
This continues a long series; more values of the same kind are listed elsewhere.

System: Male ddy mice
Experiment: Simplified acute toxicity test of N-acetylneuraminates in mice by intravenous injection
Format: in vivo
Protocol: Simplified acute toxicity test:
A simplified acute toxicity test of N-acetylneuraminates in mice by intravenous injection was carried out as follows.
Lithium-, potassium-, barium- and magnesium- salts of N-acetylneuraminic acid were used (all were from MECT Corporation).
Body weights at the start of the test: 17.7-21.1 g
The number of animals at each level: 3 mice
(3) Room temperature: 23±1° C. - Humidity: 55±7%
The above-mentioned test compounds were dissolved in physiological saline solution to make a 0.2 ml solution per 20 g of body weight in a mouse as an injection fluid and injected into the tail vein. The doses were 500, 1,000 and 2,000 mg/kg.

Measured: The number of deaths per day course

CC(=O)N[C@H]1[C@H]([C@H](O)[C@H](O)CO)OC(O)(C(=O)O)C[C@@H]1O (some centres unmarked) [Magnesium N-acetylneuraminate]
3: 1000 mg/kg i.v., 1 hrs | 2000 mg/kg i.v., 1 hrs
0: 1000 mg/kg i.v., 3 hrs | 1000 mg/kg i.v., 6 hrs | 1000 mg/kg i.v., 24 hrs | 1000 mg/kg i.v., 2 days | 1000 mg/kg i.v., 3 days | 1000 mg/kg i.v., 4 days | 1000 mg/kg i.v., 5 days | 1000 mg/kg i.v., 6 days | 1000 mg/kg i.v., 7 days | 2000 mg/kg i.v., 3 hrs | 2000 mg/kg i.v., 6 hrs | 2000 mg/kg i.v., 24 hrs | 2000 mg/kg i.v., 2 days | 2000 mg/kg i.v., 3 days | 2000 mg/kg i.v., 4 days | 2000 mg/kg i.v., 5 days | 2000 mg/kg i.v., 6 days | 2000 mg/kg i.v., 7 days
